Record: PubChem BioAssay AID1224826 (NIAID, 2016)
In all, the deposit lists about 17,000 reagents; shown is an unselected part. About 1,110 of them (6.6%) count as active. 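Active means lowered or raised reporter signal; replicate intensities are raw and not normalised per plate.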 A number with no mark means an inactive call. Further read-outs or replicates are left out here.

Assay: 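Knock-downs that raise or lower Tnf reporter signal after endotoxin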 (primary screen)
Cell system: RAW264.7 G9 macrophages from mouse bearing reporters for p65 (GFP) and the Tnf promoter (mCherry)
Reagents: siRNA pool against mouse genes, 100 nM
Time to read-out: 16 h of LPS stimulation, after 2 days of siRNA transfection
Conditions: bacterial lipopolysaccharide (Salmonella minnesota R595), 10 ng/ml
Measured: 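Nuclear mCherry signal of the Tnf promoter reporter measured by imaging after background removal, scaled to each plate median and turned into robust z-scores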
Reading the numbers: Tnf reporter robust z-score: higher = stronger Tnf promoter reporter signal after LPS
Call rule: 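a well counts as active at a score of -1.3 or below (Tlr4 knock-down control median) or above 3 (raised signal); controls and wells holding fewer than 50 cells are excluded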
Calls: active = Tnf reporter clearly lowered or raised; inactive = no clear change in Tnf reporter

gene knocked down	Tnf reporter robust z-score	fewer than 50 cells in well
Piwil4	0.82	enough cells in well
Scly		fewer than 50 cells per well; well left out of calls
Cntn6	0.12	enough cells in well
Or5ac21	1.43	enough cells in well
Zkscan17	3.18 (active)	enough cells in well
Or5an9	0.16	enough cells in well
Phkg2	0.62	enough cells in well
Tmc8	0.06	enough cells in well
Clcn4	-0.1	enough cells in well
BC016579	-1.42 (active)	enough cells in well
Dse	-0.67	enough cells in well
Mief1	0.31	enough cells in well
G6pc2	1.01	enough cells in well
Srsf10	0.26	enough cells in well
Samd8		fewer than 50 cells per well; well left out of calls
4930519G04Rik		fewer than 50 cells per well; well left out of calls
Tank	-0.9	enough cells in well
Tmx2		fewer than 50 cells per well; well left out of calls
Zdhhc9	0.13	enough cells in well
Pcdhb13	-0.25	enough cells in well
Mc1r	-0.76	enough cells in well
Denr	-0.57	enough cells in well
Rasal3	0.17	enough cells in well
Zfp799	0.72	enough cells in well

Not a retest: an excerpt of the list.
gene knocked down	Tnf reporter robust z-score	fewer than 50 cells in well
Piwil4	0.82	enough cells in well
Scly		fewer than 50 cells per well; well left out of calls
Cntn6	0.12	enough cells in well
